Holding throughout (assay): affinity purification with mass spectrometry
Experiment [1] deals with YidC2 (Streptococcus mutans (endogenous in UA159 and NG8)) (UniProt Q8DSP8).
For experiment [2], the target named is T1, GST-YidC1CT (Streptococcus mutans UA159) (UniProt Q8DVX3).
T1 sequence: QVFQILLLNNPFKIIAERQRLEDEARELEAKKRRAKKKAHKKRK

In experiment [3] the target is T2, GST-YidC2CT (Streptococcus mutans UA159) (UniProt Q8DSP8).
T2 sequence: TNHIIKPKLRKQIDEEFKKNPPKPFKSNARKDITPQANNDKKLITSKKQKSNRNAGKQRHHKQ

The target in experiment [4] is T3, GST-YidC2CT (Streptococcus mutans UA159), Q8DSP8.
T3 chain: T2 sequence
The conditions noted are these: remark: other sources report otherwise.

Experiment [5] concerns the target T1, GST-YidC1CT (Streptococcus mutans UA159). This is another data set of the same source.

Read-outs that look alike come from different tables or passages of the source. These are yes or no findings as the source states them, for the method shown. In cells and extracts the contact can be indirect. These calls come from enrichment with a bait or labelling near it, and not all partners need be listed. For some of these results: No binding means not detected with the bait. For some of these results: Tags and fused reporters may be left off the sequences shown.

For SecA (from UniProt Q8DSF0 1-839), the binding result in experiment [1] is listed as “binds”.
For the molecule SecE (from UniProt Q8DS81 1-58), the binding result in experiment [2] and in experiment [3] was “no binding” in each case.
For SecG, the binding result in experiment [2] and in experiment [3] was “no binding” in each case.
With SecY (from UniProt Q8DS32), the binding entry in experiment [2] and in experiment [3] was “no binding” each time.
As to YajC, the binding entry in experiment [2] and in experiment [3] was “no binding” in each case.
As for “cell division protein FtsH (from UniProt Q8DWM7)”, the binding result in experiment [2] is given as “binds”.
Same read-out and setting: the result for histidine kinase (SMU_486) reads “binds”.

B1: Ffh, Q54431 1-516 (protein)
chain: MAFESLTERLQGVFKNLRGKRKLSEKDVQEVTKEIRLALLEADVALPVVKEFIKRVRKRAVGHEVIDTLDPSQQIIKIVNEELTAVLGSETAEIEKSSKIPTIIMMVGLQGAGKTTFAGKLANKLVKEENARPLMIAADIYRPAAIDQLKTLGQQINVPVFDMGTEHSAVEIVSQGLAQAKENRNDYVLIDTAGRLQIDEKLMTELRDIKALANPNEILLVVDSMIGQEAANVAREFNQQLEVTGVILTKIDGDTRGGAALSVRQITGKPIKFTGTGEKITDIETFHPDRMSSRILGMGDLLTLIEKASQDYDEQKSAELAEKMRENSFDFNDFIEQLDQVQNMGSMEDILKMIPGMANNPALANVKVDEGEIARKRAIVSSMTPEERENPDLLTPSRRRRIASGSGNTFVNVNKFIKDFNQAKKMMQGVMSGDMNKVMKQMGINPNNMPKNMDSSALEGMMGQGGMPDMSELSGTNMDVSQMFGGGLKGKVGEFAMKQSMKKMAKRMKKAKKRKK
As for B1, in experiment [4], the binding entry was “binds”.

B2: Ffh (protein, UniProt Q54431 1-516)
chain: B1 chain
As to B2, the binding entry in experiment [5] is “no binding”.

Values taken from doi:10.1101/2020.04.07.031013.
